US6627772B2, “Preparation of N-[2-(carboxymethoxy) ethyl]-N-(carboxymethyl) glycine” (The Dow Chemical Company, priority 1999, dated 2003)

Tested on: standardized sludge containing municipal waste treatment plant organisms
Assay: ASTM D2667 semi-continuous activated sludge biodegradability test (loss of chelation followed by copper titration)
Conditions: copper titration value, analysis daily

O=C(O)CN(CCN(CC(=O)O)CC(=O)O)CC(=O)O [EDTA (std.), ethylenediaminetetraacetate, reference compound]
Time for greater than 80% loss of chelation: greater than 40 days
